# Source: publication PMC2659425
# Chains of the proteins cited; added tags and fusions are not shown.
# UniProt Q60668: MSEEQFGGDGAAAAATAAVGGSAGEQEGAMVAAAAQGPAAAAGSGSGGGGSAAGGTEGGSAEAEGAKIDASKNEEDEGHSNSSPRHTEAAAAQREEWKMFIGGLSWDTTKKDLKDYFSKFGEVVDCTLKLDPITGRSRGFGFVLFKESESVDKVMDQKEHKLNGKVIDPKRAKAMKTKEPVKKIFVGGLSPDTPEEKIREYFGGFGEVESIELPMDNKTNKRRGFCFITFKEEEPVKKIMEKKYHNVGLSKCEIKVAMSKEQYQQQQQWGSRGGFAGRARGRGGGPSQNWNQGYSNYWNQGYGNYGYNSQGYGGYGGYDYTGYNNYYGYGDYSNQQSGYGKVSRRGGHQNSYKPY
# Results are given in words; binding and its absence hold for the method and conditions named. Binding seen in cells or lysates may run through a third protein.
# Target: T1, Mouse Vasa Homolog (mouse (endogenous in testis germ cells)) (UniProt Q61496)
# T1 sequence: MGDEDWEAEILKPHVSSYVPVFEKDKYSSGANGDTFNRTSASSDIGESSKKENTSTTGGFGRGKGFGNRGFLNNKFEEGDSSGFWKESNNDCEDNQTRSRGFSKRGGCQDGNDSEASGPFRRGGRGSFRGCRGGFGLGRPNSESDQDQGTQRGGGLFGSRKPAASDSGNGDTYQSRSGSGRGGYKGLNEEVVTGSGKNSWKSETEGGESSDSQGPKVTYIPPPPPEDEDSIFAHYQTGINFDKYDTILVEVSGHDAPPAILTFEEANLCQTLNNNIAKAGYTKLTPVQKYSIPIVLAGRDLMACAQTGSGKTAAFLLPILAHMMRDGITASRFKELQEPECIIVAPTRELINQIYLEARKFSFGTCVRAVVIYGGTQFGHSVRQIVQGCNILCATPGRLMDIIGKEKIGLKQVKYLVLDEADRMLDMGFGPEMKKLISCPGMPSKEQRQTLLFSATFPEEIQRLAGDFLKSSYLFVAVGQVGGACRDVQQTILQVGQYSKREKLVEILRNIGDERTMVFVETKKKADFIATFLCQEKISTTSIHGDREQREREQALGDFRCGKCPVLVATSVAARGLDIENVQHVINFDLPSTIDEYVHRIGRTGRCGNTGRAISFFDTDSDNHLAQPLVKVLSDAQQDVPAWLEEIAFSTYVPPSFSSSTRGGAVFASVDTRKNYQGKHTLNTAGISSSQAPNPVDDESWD
# Assay: co-IP; IP with anti-MVH (Abcam) on protein A Sepharose from cytoplasmic extract of P40 testis germ cells, overnight at 4°C, beads washed 3 times; Western blot with anti-MVH, anti-HuR and anti-AUF1; control rabbit IgG
substance,measurement,value
AUF1 (from UniProt Q60668 1-355),binding,no binding
